The record followed here is patent US11959929B2, “Method of quantifying lysergic acid diethylamide (LSD) and 2,3-dihydro-3-hydroxy-2-oxo lysergide (O-H-LSD) in human plasma” (Universitatsspital Basel, priority 2020, dated 2024).

The nature of this data set: Carry-over between injections (double Blank after ULOQ). Also on record: species or system human.
The mark [1] stands for this setting: 1st Double blank after ULOQ, Assay 1.
Where [2] appears, read: 1st Double blank after ULOQ, Assay 2.
Setting [3] is: 1st Double blank after ULOQ, Assay 3.
The mark [4] stands for this setting: 2nd Double blank after ULOQ, Assay 1.
Setting [5] is: 2nd Double blank after ULOQ, Assay 2.
[6] abbreviates: 2nd Double blank after ULOQ, Assay 3.

Consider `CCN(CC)C(=O)[C@@H]1C=C2c3cccc4[nH]cc(c34)C[C@H]2N(C)C1` [LSD, Lysergic acid diethylamide], for which the “Carry-over % LLOQ” value is reported as 97.1% under setting [1]; 87.6% under setting [2]; 61.6% under setting [3]; 18.6% under setting [4]; 19.0% under setting [5]; 21.1% under setting [6]. Also, the “Carry-over % ULOQ” value was 0.114% under setting [1]; 0.097% under setting [2]; 0.079% under setting [3]; 0.022% under setting [4]; 0.021% under setting [5]; 0.027% under setting [6].
For the compound `CCN(CC)C(=O)C1C=C2c3cccc4c3C(O)(C[C@H]2N(C)C1)C(=O)N4` (stereo partly drawn) [O-H-LSD, 2,3-dihydro-3-hydroxy-2-oxo lysergide], the “Carry-over % LLOQ” value is on record as 40.1% under setting [1]; 57.2% under setting [2]; 43.1% under setting [3]; 3.46% under setting [4]; 2.09% under setting [5]; 38.5% under setting [6]. Further, the “Carry-over % ULOQ” value was determined as 0.045% under setting [1]; 0.064% under setting [2]; 0.060% under setting [3]; 0.004% under setting [4]; 0.002% under setting [5]; 0.054% under setting [6].
